Test results: US12351651B2 (Sichuan Gooddoctor Panxi Pharmaceutical Co., Ltd., priority 2020, dated 2025)

Experiment: general procedure: Fmoc solid-phase peptide synthesis; 2-chlorotrityl chloride resin (0.73 mmol/g); DIC/HOBt
Details: whole synthesis, scale of the general procedure 2.0192 g resin, acetate (salt exchange)

Substance | final purity (method not given) | isolated yield
PAAEPVGFVK | 100.0% | 55.5%
PAAEPVPFVKQD | 100.0% | 78.3%
PALEPVPLVKQD | 100.0% | 64.7%
PAAEGVPLVKQD | 97.9% | 56.8%
PAAEPVAFVK | 100.0% | 59.0%
PAAEPVPLVKDD | 99.5% | 51.7%
PAAEPVGAVKQD | 100.0% | 38.1%
PAAEPVPL | 100.0% | 60.3%
PAAEPVAVVK | 100.0% | 57.3%
AAEPVPLVKQD | 100.0% | –
Glu-Pro-Val-Pro-Leu (EPVPL) | 97.9% | 52.2%
Ala-Glu-Pro-Val (AEPV) | 100.0% | 57.8%
PAAEPVPLVKND | 100.0% | 57.7%
PAAEPVPMVK | 98.6% | 48.8%
PAAEPVPLVKQN | 100.0% | 48.4%
Pro-Ala-Ala-Glu | 100.0% | 65.3%
PAAEPVPLMKQD | 100.0% | 33.3%
PAAEPVPLIKQD | 100.0% | 57.2%
PAAEPVPLVVQD | 100.0% | 53.9%
PAAEGVGLVKQD | 100.0% | 14.4%
PAAEAVALVKQD | 99.7% | 19.1%
PAAEGVGL | 98.9% | 67.9%
GAAVPVPLVKQD | 100.0% | 58.9%
PAAEAVPLVKQD | 100.0% | 52.0%

Substance | final purity (method not given) | isolated yield
GAGVGVPLVKQD | 100.0% | 54.5%
GAGVPVPLVKQD | 100.0% | 45.0%
PAAEPVALVKQD | 100.0% | 37.7%
PLVKQD | 100.0% | 49.8%
AAEPVPL | 100.0% | 60.3%
PAAEPVGVVKQD | 100.0% | 46.5%
PAAEPVPYVKQD | 100.0% | 38.4%
PAAEPVPYVK | 100.0% | 51.1%
PAAEPVGLVK | 100.0% | 53.5%
PAAEPVPLVK | 99.8% | 33.8%
PAAVPVPLVKQD | 100.0% | 54.4%
GAAEPVPLVKQD | 100.0% | –
PAAEPVPMVKQD | 100.0% | 59.4%
PAAEPVP | 100.0% | 55.4%
PAAEPVPLLKQD | 100.0% | 61.8%
PAIEPVPLVKQD | 100.0% | 72.1%
EPVPLVKQD | 94.1% | 56.0%
PAAEPVGVVK | 100.0% | 56.9%
PIAEPVPLVKQD | 100.0% | 41.9%
PAPEPVPLVKQD | 100.0% | 22.2%
VPLVKQD | 100.0% | –
PAAEPVAFVKQD | 100.0% | 43.3%
Ala-Glu-Pro-Val-Pro (AEPVP) | 100.0% | 47.8%
PAAEPVPLVKQE | 99.5% | 80.8%

Substance | final purity (method not given) | isolated yield
AEPVPL | 100.0% | 71.7%
PAAEPVPLVRQD | 100.0% | 49.8%
PLAEPVPLVKQD | 100.0% | 62.7%
AEPVPLVKQD | 100.0% | 48.3%
PAAEPVPIVK | 99.6% | 58.5%
PAGEPVPLVKQD | 100.0% | 56.7%
Pro-Val-Pro-Leu (PVPL) | 100.0% | 46.4%
PAANPVPLVKQD | 100.0% | 57.5%
PAADPVPLVKQD | 99.6% | 52.9%
PAAEPVPFVK | 100.0% | 53.8%
PAAEPVPVVKQD | 100.0% | 57.1%
PAAEPVALVK | 100.0% | 60.1%
Pro-Ala-Ala-Glu-Pro (PAAEP) | 99.2% | 59.3%
PAAEPVPIVKQD | 100.0% | 53.5%
PAAEPV | 100.0% | 94.3%
PVPLVKQD | 100.0% | 43.6%
PAAEPVPVVK | 98.7% | 56.7%
PAAEPVGLVKQD | 99.2% | 42.3%
PAAEPVPLVKED | 100.0% | 61.3%
PAAQPVPLVKQD | 100.0% | 57.4%
PAALPVPLVKQD | 100.0% | 57.9%
Val-Pro-Leu-Val (VPLV) | 100.0% | 58.3%
AAAEPVPLVKQD | 100.0% | 61.6%

Same assay, conditions: whole synthesis, scale of the general procedure 2.0192 g resin, acetate (salt exchange); run 1

Substance | isolated yield
VPLVKQD | 57.9%

Same assay, conditions: whole synthesis, scale of the general procedure 2.0192 g resin, acetate (salt exchange); run 2

Substance | isolated yield
VPLVKQD | 53.3%

No end group written: not given here.
